Test results as given in article PMC10697842.
Results are given in words; binding and its absence hold for the method and conditions named. In cells and extracts the contact can be indirect. These calls come from enrichment with a bait or labelling near it, and not all partners need be listed.

Sequences of proteins named here, by UniProt entry; tags and fusion partners are left off.
UniProt P0AE72: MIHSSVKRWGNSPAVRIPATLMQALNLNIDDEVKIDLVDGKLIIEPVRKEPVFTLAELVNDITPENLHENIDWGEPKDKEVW

Target: FLAG-MazE (E. coli) (UniProt P0AE72)
Test: affinity purification with mass spectrometry; lysate of E. coli producing MazF(E24A) and a FLAG-tagged bait; anti-FLAG M2 magnetic beads, 1 h at 4 °C; washed three times with 25 mM Tris-HCl, 150 mM NaCl, 1 mM EDTA, 5% glycerol (no detergent); on-bead trypsin digestion, LC-MS/MS, spectral counts

binding: binds
Substance: MazF(E24A) (from UniProt P0AE70 1-111) (enzyme)
